The supplement of paper PMC10849652
Some of the results follow. Residues, ends and D or L forms follow the SMILES beside them. *: point of attachment. Cbz = O=C(OCc1ccccc1)*

The chains behind the UniProt entries cited, without tags or fusion partners. Where a name states a change or a piece, a line headed by the entry shows the natural chain unless it says otherwise.
UniProt Q92522: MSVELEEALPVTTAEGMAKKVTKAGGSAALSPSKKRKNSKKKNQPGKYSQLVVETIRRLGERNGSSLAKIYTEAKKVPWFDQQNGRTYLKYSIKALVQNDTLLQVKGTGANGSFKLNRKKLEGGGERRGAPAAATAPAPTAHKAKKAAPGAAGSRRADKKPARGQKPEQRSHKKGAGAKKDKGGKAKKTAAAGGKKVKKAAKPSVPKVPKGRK
UniProt P13807: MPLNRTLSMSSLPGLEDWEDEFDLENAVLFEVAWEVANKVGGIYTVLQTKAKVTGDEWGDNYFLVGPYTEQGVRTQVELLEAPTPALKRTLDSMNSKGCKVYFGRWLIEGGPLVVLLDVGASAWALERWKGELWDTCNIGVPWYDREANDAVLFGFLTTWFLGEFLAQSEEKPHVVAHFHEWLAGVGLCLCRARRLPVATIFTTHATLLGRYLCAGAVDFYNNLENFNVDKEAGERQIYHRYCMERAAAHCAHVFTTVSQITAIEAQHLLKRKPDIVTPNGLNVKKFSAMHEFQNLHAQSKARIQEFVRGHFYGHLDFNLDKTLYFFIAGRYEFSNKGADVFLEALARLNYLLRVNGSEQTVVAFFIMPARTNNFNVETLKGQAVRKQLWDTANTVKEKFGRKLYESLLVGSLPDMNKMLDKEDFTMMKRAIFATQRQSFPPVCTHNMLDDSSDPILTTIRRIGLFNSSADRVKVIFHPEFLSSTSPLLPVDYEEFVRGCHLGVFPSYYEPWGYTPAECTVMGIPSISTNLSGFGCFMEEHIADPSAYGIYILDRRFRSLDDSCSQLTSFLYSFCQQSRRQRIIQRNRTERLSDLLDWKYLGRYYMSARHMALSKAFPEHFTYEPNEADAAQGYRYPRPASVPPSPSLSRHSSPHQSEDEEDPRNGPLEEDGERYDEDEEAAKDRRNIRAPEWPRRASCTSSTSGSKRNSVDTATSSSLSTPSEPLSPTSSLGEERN
UniProt P46439: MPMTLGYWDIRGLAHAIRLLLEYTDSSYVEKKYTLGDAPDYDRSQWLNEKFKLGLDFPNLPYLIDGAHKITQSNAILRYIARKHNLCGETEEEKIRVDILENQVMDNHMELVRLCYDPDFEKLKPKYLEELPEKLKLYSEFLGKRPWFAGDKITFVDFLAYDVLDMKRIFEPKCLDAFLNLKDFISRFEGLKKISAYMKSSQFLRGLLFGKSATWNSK
UniProt Q13889: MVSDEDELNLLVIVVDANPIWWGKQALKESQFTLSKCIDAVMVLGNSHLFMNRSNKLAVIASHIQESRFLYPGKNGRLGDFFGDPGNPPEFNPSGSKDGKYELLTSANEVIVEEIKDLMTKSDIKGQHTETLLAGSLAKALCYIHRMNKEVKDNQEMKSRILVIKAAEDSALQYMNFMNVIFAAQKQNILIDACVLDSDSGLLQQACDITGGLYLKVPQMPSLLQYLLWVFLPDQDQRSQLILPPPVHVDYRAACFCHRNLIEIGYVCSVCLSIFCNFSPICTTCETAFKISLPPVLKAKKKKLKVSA
UniProt Q03013: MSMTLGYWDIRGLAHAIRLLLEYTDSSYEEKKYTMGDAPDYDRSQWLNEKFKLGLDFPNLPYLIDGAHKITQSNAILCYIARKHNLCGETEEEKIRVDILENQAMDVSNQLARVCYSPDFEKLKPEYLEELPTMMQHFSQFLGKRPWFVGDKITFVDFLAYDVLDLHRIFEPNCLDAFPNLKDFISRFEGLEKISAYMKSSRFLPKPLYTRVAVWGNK
UniProt Q9H0R4: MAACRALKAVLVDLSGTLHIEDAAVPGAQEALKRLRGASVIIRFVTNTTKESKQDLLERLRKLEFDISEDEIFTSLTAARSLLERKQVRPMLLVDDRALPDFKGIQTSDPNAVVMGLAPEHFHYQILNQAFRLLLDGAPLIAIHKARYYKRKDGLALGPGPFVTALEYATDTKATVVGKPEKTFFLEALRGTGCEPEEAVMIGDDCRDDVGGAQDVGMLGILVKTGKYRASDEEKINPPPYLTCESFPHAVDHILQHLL
UniProt P00390: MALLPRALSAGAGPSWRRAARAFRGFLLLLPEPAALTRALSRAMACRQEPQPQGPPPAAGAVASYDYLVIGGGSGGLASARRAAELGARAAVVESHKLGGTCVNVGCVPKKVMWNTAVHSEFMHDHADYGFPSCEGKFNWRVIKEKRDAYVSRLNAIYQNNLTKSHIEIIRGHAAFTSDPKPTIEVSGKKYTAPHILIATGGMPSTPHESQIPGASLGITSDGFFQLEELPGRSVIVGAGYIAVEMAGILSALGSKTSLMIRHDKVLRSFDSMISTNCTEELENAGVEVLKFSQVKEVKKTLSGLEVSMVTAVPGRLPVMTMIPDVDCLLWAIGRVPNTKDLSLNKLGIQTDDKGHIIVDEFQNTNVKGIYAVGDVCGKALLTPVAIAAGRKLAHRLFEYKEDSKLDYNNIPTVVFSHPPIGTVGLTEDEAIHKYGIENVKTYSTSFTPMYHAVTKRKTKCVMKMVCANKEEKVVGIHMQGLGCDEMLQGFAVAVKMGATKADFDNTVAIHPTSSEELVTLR
UniProt P55084: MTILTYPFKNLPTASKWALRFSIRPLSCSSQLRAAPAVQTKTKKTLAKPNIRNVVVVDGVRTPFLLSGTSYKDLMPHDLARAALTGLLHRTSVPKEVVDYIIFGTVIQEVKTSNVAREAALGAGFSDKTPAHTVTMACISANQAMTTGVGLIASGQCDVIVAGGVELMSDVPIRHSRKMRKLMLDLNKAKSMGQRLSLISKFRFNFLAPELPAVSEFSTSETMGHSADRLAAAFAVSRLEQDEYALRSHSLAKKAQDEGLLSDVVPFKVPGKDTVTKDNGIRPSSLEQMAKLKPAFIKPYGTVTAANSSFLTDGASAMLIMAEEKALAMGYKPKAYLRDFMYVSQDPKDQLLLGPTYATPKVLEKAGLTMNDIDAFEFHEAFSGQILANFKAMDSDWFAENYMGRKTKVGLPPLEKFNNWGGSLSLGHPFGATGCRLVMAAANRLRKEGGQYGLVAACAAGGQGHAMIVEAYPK
UniProt Q92769, whole entry, looked up: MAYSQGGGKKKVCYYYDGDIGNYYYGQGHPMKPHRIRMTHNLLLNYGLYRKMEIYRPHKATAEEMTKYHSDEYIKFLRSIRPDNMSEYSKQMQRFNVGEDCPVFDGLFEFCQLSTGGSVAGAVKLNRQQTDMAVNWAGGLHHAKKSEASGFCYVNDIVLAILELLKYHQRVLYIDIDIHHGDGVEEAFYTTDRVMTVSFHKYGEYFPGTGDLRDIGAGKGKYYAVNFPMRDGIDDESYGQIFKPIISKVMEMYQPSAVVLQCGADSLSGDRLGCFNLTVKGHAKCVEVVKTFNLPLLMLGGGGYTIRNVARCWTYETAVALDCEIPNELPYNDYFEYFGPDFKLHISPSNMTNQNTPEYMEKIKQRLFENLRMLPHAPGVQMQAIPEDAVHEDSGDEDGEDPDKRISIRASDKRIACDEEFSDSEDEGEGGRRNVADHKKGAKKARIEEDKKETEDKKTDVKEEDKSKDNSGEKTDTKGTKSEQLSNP
UniProt O14929: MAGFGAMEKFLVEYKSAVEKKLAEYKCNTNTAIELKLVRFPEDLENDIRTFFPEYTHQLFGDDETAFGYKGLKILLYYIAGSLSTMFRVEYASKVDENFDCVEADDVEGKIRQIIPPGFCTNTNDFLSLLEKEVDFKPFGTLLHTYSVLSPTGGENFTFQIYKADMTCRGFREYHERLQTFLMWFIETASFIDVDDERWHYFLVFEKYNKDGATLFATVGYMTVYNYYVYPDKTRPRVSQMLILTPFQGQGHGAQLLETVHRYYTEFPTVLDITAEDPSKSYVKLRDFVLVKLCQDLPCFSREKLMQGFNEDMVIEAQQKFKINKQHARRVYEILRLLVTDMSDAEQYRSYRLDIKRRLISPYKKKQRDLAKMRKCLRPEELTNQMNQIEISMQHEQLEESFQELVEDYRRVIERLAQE
UniProt P29083: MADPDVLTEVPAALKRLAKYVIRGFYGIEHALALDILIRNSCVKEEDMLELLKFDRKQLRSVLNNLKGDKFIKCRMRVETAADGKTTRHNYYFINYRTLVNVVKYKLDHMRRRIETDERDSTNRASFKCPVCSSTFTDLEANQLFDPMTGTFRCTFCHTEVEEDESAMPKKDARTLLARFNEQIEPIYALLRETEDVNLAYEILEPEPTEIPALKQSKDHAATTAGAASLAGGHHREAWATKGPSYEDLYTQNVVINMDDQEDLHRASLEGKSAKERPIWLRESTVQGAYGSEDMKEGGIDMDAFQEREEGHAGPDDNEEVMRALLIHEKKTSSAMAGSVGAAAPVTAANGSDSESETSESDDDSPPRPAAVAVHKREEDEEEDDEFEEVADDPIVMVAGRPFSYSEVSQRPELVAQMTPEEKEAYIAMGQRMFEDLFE
UniProt Q13547, whole entry, looked up: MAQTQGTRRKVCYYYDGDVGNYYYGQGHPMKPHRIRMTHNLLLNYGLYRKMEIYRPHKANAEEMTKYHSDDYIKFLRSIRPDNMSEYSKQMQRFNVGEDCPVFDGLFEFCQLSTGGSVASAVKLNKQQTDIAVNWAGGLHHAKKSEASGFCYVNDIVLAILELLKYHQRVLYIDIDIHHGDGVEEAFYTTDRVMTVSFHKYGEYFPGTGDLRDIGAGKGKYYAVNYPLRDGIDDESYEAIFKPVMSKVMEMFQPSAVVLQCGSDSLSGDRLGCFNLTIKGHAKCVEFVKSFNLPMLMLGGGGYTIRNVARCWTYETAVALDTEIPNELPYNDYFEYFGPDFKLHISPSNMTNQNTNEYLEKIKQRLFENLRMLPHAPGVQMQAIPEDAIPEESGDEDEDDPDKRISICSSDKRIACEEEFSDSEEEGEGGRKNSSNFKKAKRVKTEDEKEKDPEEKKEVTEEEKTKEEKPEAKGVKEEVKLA
UniProt O00165, whole entry, looked up: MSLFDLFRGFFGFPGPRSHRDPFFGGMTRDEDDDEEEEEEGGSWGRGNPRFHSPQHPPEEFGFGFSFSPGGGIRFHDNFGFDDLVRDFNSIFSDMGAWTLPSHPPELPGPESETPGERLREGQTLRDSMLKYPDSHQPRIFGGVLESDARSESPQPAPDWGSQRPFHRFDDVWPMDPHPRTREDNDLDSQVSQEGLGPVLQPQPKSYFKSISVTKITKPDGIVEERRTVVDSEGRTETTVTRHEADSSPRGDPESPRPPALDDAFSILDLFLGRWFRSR
UniProt Q969F1: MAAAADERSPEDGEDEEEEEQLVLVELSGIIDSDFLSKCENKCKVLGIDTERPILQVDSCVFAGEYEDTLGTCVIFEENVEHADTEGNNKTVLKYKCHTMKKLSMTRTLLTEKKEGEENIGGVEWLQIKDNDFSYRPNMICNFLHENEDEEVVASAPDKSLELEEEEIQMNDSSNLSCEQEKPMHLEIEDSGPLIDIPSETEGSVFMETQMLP
UniProt Q9UKN8: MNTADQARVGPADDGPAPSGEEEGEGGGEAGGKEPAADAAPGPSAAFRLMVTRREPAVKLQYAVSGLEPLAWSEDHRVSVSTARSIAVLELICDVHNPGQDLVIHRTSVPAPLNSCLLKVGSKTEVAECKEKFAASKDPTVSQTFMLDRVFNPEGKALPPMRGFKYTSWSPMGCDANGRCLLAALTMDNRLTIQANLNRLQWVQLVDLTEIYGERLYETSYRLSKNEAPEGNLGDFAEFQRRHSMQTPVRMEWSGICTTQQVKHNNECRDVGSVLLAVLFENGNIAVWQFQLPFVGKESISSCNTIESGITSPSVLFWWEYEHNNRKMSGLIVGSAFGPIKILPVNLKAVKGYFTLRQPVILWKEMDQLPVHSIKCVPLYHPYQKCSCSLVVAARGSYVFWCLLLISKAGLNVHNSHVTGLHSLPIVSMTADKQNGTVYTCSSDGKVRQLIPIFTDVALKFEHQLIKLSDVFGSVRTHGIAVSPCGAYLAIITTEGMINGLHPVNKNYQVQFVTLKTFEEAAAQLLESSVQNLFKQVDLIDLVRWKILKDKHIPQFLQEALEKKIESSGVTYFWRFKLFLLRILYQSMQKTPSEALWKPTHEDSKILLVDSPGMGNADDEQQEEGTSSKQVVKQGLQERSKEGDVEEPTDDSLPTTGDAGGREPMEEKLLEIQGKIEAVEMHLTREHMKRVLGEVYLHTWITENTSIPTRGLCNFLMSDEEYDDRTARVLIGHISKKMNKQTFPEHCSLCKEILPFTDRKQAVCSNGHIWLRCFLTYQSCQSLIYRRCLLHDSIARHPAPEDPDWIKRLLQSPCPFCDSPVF

Key:
Test in all cases: log2 fold change, soluble protein after heating vs DMSO (PISA); higher = thermal stabilisation; K562 cells, 10 uM, 30 min; active = over 0.2 and 3.5 SD of the protein, either way, in both replicates (recomputed)
IRAK-1-4 Inhibitor I = compound: C1COCCN1CCN2C3=CC=CC=C3N=C2NC(=O)C4=CC(=CC=C4)[N+](=O)[O-] [IRAK-1-4 Inhibitor I]
How it was run: (§1)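 Aliquots of K562 cells (2×10^6 cells/mL) treated with 10 μM compound for 30 min were heated for 3 min over 48°C-58°C. After pooling and extraction in PBS with 0.5% NP-40 at 4°C, soluble protein from a 21,000xg, 90 min spin was quantified by TMTpro 16plex LC-MS/MS with channel sums equalised. Thermal stability is expressed against control samples, from duplicates, as a log2 fold change.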

ibrutinib = compound: C=CC(=O)N1CCC[C@@H](n2nc(-c3ccc(Oc4ccccc4)cc3)c3c(N)ncnc32)C1 [ibrutinib]
How it was run: as §1

[1] = compound: CC(=O)c1cnc2ccc(-c3cc(Cl)c(O)c(Cl)c3)nc2c1N[C@H]1CC[C@H](CN(C)C)CC1
How it was run: as §1

ralimetinib = compound: CC(C)(C)Cn1c(N)nc2ccc(-c3[nH]c(C(C)(C)C)nc3-c3ccc(F)cc3)nc21 [ralimetinib]
How it was run: as §1

[2] = compound: CC(C)(O)CC(=O)NCCn1ccc2ncnc(Nc3ccc(Oc4cccc(C(F)(F)F)c4)c(Cl)c3)c21
How it was run: as §1

[3] = compound: CC(C)C1=C2N=C(C=C(N2N=C1)NCC3=CC=CC=C3)NCCCCCCN
How it was run: as §1

[4] = compound: CC(C)C[C@@H](C=O)NC(=O)[C@H](CC(C)C)NC(=O)[C@H](CC(C)C)NC(=O)OCc1ccccc1
How it was run: as §1

pinometostat = compound: CC(C)N(C[C@H]1O[C@@H](n2cnc3c(N)ncnc32)[C@H](O)[C@@H]1O)[C@H]1C[C@@H](CCc2nc3cc(C(C)(C)C)ccc3[nH]2)C1 [pinometostat]
How it was run: as §1

[5] = compound: CC1=C(C2=C(C=C1)C(=O)C3=CC=CC=C3N2CCCN)C
How it was run: as §1

[6] = compound: CC1=C(C=C(C=C1)NC(=O)C2=CC(=CC=C2)C(C)(C)C#N)NC3=CC4=C(C=C3)N=CN(C4=O)C
How it was run: as §1

[7] = compound: CC1=C(C=C(C=C1)NC(=O)C2=CC(=CC=C2)N(C)C)NC(=O)C3=CC=C(C=C3)O
How it was run: as §1

[8] = compound: CC1=CC=C(C=C1)SC2=C3C=C(SC3=CN=C2)C(=O)N
How it was run: as §1

[9] = compound: CC1=NC(=CC=C1)C2=C(N=C(N2)C(C)(C)C)C3=CC4=NC=CN=C4C=C3
How it was run: as §1

Nexturastat A = compound: CCCCN(Cc1ccc(C(=O)NO)cc1)C(=O)Nc1ccccc1 [Nexturastat A]
How it was run: as §1

vemurafenib = compound: CCCS(=O)(=O)Nc1ccc(F)c(C(=O)c2c[nH]c3ncc(-c4ccc(Cl)cc4)cc23)c1F [vemurafenib]
How it was run: as §1

[10] = compound: CCCS(=O)(=O)Nc1ccc(F)c(C(=O)c2c[nH]c3ncc(Cl)cc23)c1F
How it was run: as §1

[11] = compound: CCCc1cc(C)[nH]c(=O)c1CNC(=O)c1cc(-c2ccnc(N3CCN(C)CC3)c2)cc2c1cnn2C(C)C
How it was run: as §1

givinostat = compound: CCN(CC)Cc1ccc2cc(COC(=O)Nc3ccc(C(=O)NO)cc3)ccc2c1 [givinostat]
How it was run: as §1

barasertib = compound: CCN(CCCOc1ccc2c(Nc3cc(CC(=O)Nc4cccc(F)c4)[nH]n3)ncnc2c1)CCOP(=O)(O)O [barasertib]
How it was run: as §1

[12] = compound: CC1=C(C(CC(=O)N1)C2=CC=C(C=C2)C(F)(F)F)C(=O)NC3=C(C=C4C(=C3)C=NN4)F
How it was run: as §1

Measured: log2 fold change

H1FX (UniProt Q92522)
inactive: IRAK-1-4 Inhibitor I -0.171 | ibrutinib 0.077 | [1] 0.231 | ralimetinib 0.204 | [2] 0.031 | [3] 0.13 | [4] 0.09 | pinometostat 0.246 | [6] 0.081 | [7] -0.059 | [8] -0.106 | [9] -0.222 | Nexturastat A 0.278 | vemurafenib -0.083 | [10] -0.077 | [11] 0.176 | givinostat -0.034 | barasertib -0.129
active: [5] -0.718

GYS1 (UniProt P13807)
inactive: IRAK-1-4 Inhibitor I -0.151 | ibrutinib 0.009 | ralimetinib 0.095 | [2] 0.158 | [3] -0.253 | [4] 0.141 | pinometostat 0.412 | [5] 0.046 | [6] 0.057 | [7] -0.04 | [8] -0.068 | [9] -0.13 | Nexturastat A 0.515 | vemurafenib 0.052 | [10] -0.01 | [11] 0.091 | givinostat 0.108 | barasertib -0.033
active: [1] -0.976

GSTM5 (UniProt P46439)
inactive: IRAK-1-4 Inhibitor I -0.05 | ibrutinib -0.058 | [1] -0.001 | [2] -0.005 | [3] -0.071 | pinometostat -0.028 | [12] 0.177 | [5] 0.241 | [6] 0.283 | [8] -0.055 | [9] 0.062 | Nexturastat A -0.232 | vemurafenib -0.044 | [10] -0.131 | [11] -0.126 | givinostat -0.257 | barasertib 0.071

GTF2H3 (UniProt Q13889)
inactive: IRAK-1-4 Inhibitor I -0.06 | ibrutinib 0.056 | [1] 0.063 | ralimetinib 0.049 | [2] 0.006 | [3] 0.011 | [4] 0 | pinometostat 0.06 | [5] 0.02 | [6] -0.094 | [7] -0.008 | [8] -0.024 | [9] 0 | Nexturastat A 0.016 | vemurafenib -0.081 | [10] -0.021 | [11] -0.112 | givinostat 0.068 | barasertib -0.042

HECTD1 (UniProt Q9ULT8)
active: Nexturastat A 0.273
inactive: IRAK-1-4 Inhibitor I -0.076 | ibrutinib -0.027 | [1] 0.001 | ralimetinib 0.054 | [2] -0.048 | [3] -0.091 | [4] 0.141 | pinometostat 0.079 | [5] -0.158 | [6] 0.04 | [7] -0.068 | [8] 0.144 | [9] -0.023 | vemurafenib -0.04 | [10] 0.126 | [11] 0.054 | givinostat 0.038 | barasertib 0.048

GSTM4 (UniProt Q03013)
inactive: IRAK-1-4 Inhibitor I 0.091 | ibrutinib -0.028 | [1] -0.083 | ralimetinib -0.035 | [2] -0.103 | [3] 0.029 | [4] -0.008 | pinometostat -0.05 | [5] 0.115 | [6] 0.106 | [7] 0.128 | [8] -0.041 | [9] 0.015 | Nexturastat A -0.117 | vemurafenib 0.126 | [10] -0.058 | [11] -0.105 | givinostat 0.001 | barasertib -0.164

HDHD2 (UniProt Q9H0R4)
active: Nexturastat A -0.316
inactive: IRAK-1-4 Inhibitor I 0.007 | ibrutinib -0.019 | [1] 0.021 | ralimetinib -0.006 | [2] -0.168 | [3] 0.024 | [4] -0.037 | pinometostat -0.018 | [5] 0.003 | [6] 0.059 | [7] 0.028 | [8] 0.023 | [9] 0.014 | vemurafenib 0.02 | [10] 0.007 | [11] -0.028 | givinostat 0.007 | barasertib 0.011

GSR (UniProt P00390)
inactive: IRAK-1-4 Inhibitor I 0.037 | ibrutinib -0.005 | [1] -0.011 | ralimetinib -0.021 | [2] -0.015 | [3] 0.082 | [4] 0.023 | pinometostat -0.05 | [5] -0.003 | [6] -0.011 | [7] 0.022 | [8] 0.016 | [9] 0.007 | Nexturastat A -0.073 | vemurafenib -0.027 | [10] 0.02 | [11] -0.026 | barasertib -0.03
active: givinostat -0.253

HELZ (UniProt P42694)
inactive: IRAK-1-4 Inhibitor I 0.035 | ibrutinib 0.018 | [1] -0.285 | ralimetinib 0.004 | [3] 0.004 | [4] 0.049 | pinometostat -0.181 | [12] 0.035 | [6] 0.056 | [7] -0.064 | [8] 0.02 | [9] -0.12 | vemurafenib -0.404 | [10] 0.087 | [11] -0.032 | givinostat 0.093 | barasertib 0.052

HADHB (UniProt P55084)
inactive: IRAK-1-4 Inhibitor I -0.025 | ibrutinib 0.074 | [1] -0.326 | ralimetinib 0.068 | [2] -0.155 | [3] 0.37 | [4] -0.106 | pinometostat -0.05 | [5] 0.104 | [6] 0.19 | [7] -0.248 | [8] -0.002 | [9] -0.012 | Nexturastat A -0.085 | vemurafenib -0.047 | [10] -0.042 | [11] 0.113 | givinostat 0.064 | barasertib 0

HDAC2 (UniProt Q92769)
inactive: IRAK-1-4 Inhibitor I 0 | ibrutinib -0.015 | [1] -0.046 | ralimetinib -0.004 | [2] 0.01 | [3] 0.007 | [4] -0.04 | pinometostat -0.01 | [5] 0 | [6] -0.051 | [7] -0.001 | [8] 0.015 | [9] -0.006 | vemurafenib -0.005 | [10] 0.019 | [11] -0.018 | barasertib -0.039
active: Nexturastat A 0.856

Four successive entries from above:
GSTM4 (UniProt Q03013)
inactive: IRAK-1-4 Inhibitor I 0.091 | ibrutinib -0.028 | [1] -0.083 | ralimetinib -0.035 | [2] -0.103 | [3] 0.029 | [4] -0.008 | pinometostat -0.05 | [5] 0.115 | [6] 0.106 | [7] 0.128 | [8] -0.041 | [9] 0.015 | Nexturastat A -0.117 | vemurafenib 0.126 | [10] -0.058 | [11] -0.105 | givinostat 0.001 | barasertib -0.164

HDHD2 (UniProt Q9H0R4)
active: Nexturastat A -0.316
inactive: IRAK-1-4 Inhibitor I 0.007 | ibrutinib -0.019 | [1] 0.021 | ralimetinib -0.006 | [2] -0.168 | [3] 0.024 | [4] -0.037 | pinometostat -0.018 | [5] 0.003 | [6] 0.059 | [7] 0.028 | [8] 0.023 | [9] 0.014 | vemurafenib 0.02 | [10] 0.007 | [11] -0.028 | givinostat 0.007 | barasertib 0.011

GSR (UniProt P00390)
inactive: IRAK-1-4 Inhibitor I 0.037 | ibrutinib -0.005 | [1] -0.011 | ralimetinib -0.021 | [2] -0.015 | [3] 0.082 | [4] 0.023 | pinometostat -0.05 | [5] -0.003 | [6] -0.011 | [7] 0.022 | [8] 0.016 | [9] 0.007 | Nexturastat A -0.073 | vemurafenib -0.027 | [10] 0.02 | [11] -0.026 | barasertib -0.03
active: givinostat -0.253

HELZ (UniProt P42694)
inactive: IRAK-1-4 Inhibitor I 0.035 | ibrutinib 0.018 | [1] -0.285 | ralimetinib 0.004 | [3] 0.004 | [4] 0.049 | pinometostat -0.181 | [12] 0.035 | [6] 0.056 | [7] -0.064 | [8] 0.02 | [9] -0.12 | vemurafenib -0.404 | [10] 0.087 | [11] -0.032 | givinostat 0.093 | barasertib 0.052

Next part.

HAT1 (UniProt O14929)
inactive: IRAK-1-4 Inhibitor I 0.027 | ibrutinib -0.009 | [1] -0.109 | ralimetinib -0.003 | [2] -0.027 | [3] 0.006 | [4] -0.022 | pinometostat -0.048 | [5] -0.03 | [6] 0.042 | [7] -0.037 | [8] 0.008 | [9] 0.095 | Nexturastat A -0.034 | vemurafenib 0.087 | [10] 0.013 | [11] 0.007 | givinostat 0.005 | barasertib 0.025

GTF2E1 (UniProt P29083)
inactive: IRAK-1-4 Inhibitor I -0.048 | ibrutinib -0.06 | [1] -0.051 | ralimetinib -0.018 | [2] -0.178 | [3] -0.147 | [4] 0.016 | pinometostat -0.046 | [5] -0.007 | [6] -0.005 | [7] -0.057 | [8] 0.011 | [9] 0.115 | Nexturastat A 0.024 | vemurafenib 0.05 | [10] 0.082 | [11] -0.006 | givinostat 0.091 | barasertib 0.166

HDAC1 (UniProt Q13547)
active: Nexturastat A 1.45
inactive: IRAK-1-4 Inhibitor I -0.033 | ibrutinib -0.052 | [1] 0.056 | ralimetinib 0.02 | [2] -0.021 | [3] -0.009 | [4] -0.067 | pinometostat 0.03 | [5] 0.023 | [6] -0.11 | [7] -0.039 | [8] 0.051 | [9] 0.034 | vemurafenib 0.051 | [10] 0.14 | [11] -0.118 | barasertib 0.024

HAX1 (UniProt O00165)
active: [3] -0.498
inactive: IRAK-1-4 Inhibitor I -0.017 | ibrutinib -0.036 | [1] -0.07 | ralimetinib 0.026 | [2] -0.156 | [4] 0.045 | pinometostat 0.107 | [5] 0.065 | [6] -0.018 | [7] -0.101 | [8] 0.03 | [9] -0.058 | Nexturastat A 0.066 | vemurafenib -0.012 | [10] 0.082 | [11] 0.045 | givinostat 0.009 | barasertib 0.046

GTF3C6 (UniProt Q969F1)
inactive: IRAK-1-4 Inhibitor I 0.054 | ibrutinib -0.013 | [2] -0.017 | pinometostat 0.067 | [12] 0.111 | [5] -0.102 | [6] -0.041 | [8] -0.076 | [9] -0.051 | Nexturastat A 0.103 | vemurafenib -0.1 | [10] 0.038 | [11] 0.036 | barasertib 0.065

HDGFL2 (UniProt Q7Z4V5)
active: [5] -0.709 | [6] -0.281
inactive: IRAK-1-4 Inhibitor I 0.01 | ibrutinib -0.039 | [1] 0.011 | ralimetinib -0.019 | [2] 0.041 | [3] -0.017 | [4] -0.022 | pinometostat -0.051 | [7] 0 | [8] -0.006 | [9] 0.049 | Nexturastat A 0.063 | vemurafenib -0.022 | [10] 0.007 | [11] -0.078 | givinostat 0.049 | barasertib 0.037

GTF3C4 (UniProt Q9UKN8)
inactive: IRAK-1-4 Inhibitor I -0.002 | ibrutinib 0.032 | [1] -0.051 | ralimetinib -0.045 | [2] 0.035 | [3] 0.038 | [4] 0.035 | pinometostat 0 | [5] -0.041 | [6] -0.025 | [7] -0.027 | [8] 0.038 | [9] 0.008 | Nexturastat A -0.052 | vemurafenib 0.032 | [10] 0.045 | [11] 0.033 | givinostat -0.007 | barasertib 0.003
